Assay results as given in the supplement of paper PMC10849652.
This is one part of the list.

Sequences of proteins named here, by UniProt entry; tags and fusion partners are left off. A change or cut given only in a name is not applied to a line headed by its entry.
UniProt Q9H467: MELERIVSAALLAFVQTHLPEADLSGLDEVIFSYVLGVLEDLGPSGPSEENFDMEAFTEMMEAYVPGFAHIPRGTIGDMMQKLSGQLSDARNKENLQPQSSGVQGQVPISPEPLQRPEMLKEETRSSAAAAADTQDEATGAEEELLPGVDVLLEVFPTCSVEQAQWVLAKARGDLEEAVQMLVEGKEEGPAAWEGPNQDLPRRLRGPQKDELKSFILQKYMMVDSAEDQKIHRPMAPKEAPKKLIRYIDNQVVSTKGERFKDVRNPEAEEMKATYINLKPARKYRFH
UniProt P14868: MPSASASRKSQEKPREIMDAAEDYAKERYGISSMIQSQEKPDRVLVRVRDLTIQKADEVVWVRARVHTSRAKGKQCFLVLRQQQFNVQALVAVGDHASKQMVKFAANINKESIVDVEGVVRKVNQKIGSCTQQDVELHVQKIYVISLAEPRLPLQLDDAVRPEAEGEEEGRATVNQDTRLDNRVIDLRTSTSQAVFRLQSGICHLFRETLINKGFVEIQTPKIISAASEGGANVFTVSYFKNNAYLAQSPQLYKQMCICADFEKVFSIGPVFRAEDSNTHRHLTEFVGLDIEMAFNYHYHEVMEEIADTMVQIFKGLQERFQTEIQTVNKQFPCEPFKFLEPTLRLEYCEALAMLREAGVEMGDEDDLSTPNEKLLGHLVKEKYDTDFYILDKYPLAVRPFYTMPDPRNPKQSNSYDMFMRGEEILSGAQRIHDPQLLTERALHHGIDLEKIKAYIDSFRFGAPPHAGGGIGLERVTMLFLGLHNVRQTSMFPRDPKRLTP
UniProt Q6UW02: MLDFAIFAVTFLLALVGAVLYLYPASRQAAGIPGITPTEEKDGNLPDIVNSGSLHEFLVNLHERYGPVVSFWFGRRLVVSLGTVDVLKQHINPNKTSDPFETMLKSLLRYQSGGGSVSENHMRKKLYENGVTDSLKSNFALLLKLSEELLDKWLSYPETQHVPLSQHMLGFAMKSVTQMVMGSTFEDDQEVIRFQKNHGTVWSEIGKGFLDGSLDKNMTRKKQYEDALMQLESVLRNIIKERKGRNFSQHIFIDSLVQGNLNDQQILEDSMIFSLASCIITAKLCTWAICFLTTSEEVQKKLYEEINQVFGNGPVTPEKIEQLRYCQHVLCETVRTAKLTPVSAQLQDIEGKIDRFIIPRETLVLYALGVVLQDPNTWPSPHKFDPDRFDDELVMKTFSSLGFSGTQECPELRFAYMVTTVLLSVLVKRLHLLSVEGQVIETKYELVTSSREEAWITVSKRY
UniProt Q14118: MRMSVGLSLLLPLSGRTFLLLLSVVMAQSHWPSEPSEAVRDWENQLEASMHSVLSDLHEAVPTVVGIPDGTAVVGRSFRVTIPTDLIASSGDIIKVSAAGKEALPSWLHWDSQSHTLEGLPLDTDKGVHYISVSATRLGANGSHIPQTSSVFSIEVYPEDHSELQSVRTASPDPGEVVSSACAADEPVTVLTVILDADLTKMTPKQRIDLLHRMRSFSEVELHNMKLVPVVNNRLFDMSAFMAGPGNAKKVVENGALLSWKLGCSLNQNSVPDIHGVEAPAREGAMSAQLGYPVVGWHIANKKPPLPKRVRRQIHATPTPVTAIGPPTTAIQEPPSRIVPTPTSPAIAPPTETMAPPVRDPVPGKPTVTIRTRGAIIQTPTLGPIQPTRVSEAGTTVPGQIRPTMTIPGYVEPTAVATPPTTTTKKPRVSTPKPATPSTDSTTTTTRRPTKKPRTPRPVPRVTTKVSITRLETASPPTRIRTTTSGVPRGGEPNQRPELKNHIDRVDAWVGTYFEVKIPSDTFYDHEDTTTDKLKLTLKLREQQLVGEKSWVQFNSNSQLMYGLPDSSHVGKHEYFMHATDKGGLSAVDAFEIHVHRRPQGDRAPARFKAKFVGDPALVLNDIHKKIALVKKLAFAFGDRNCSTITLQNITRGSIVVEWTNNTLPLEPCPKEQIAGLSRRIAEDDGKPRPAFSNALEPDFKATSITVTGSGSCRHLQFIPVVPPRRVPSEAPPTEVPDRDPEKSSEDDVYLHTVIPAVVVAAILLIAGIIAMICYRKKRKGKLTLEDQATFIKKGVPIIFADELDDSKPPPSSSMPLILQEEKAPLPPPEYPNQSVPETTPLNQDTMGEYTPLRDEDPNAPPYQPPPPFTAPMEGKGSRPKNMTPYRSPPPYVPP
UniProt O00399, whole entry, looked up: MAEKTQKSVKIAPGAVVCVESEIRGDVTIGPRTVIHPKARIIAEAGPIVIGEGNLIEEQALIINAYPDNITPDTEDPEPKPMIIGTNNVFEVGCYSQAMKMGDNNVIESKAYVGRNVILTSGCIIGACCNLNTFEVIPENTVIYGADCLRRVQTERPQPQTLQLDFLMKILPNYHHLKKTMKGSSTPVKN
UniProt Q9H773: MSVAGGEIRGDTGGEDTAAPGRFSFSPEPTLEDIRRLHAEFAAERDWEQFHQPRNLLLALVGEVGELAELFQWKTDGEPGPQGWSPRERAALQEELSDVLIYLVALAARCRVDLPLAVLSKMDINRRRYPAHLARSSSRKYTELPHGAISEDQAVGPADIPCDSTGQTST
UniProt O60911: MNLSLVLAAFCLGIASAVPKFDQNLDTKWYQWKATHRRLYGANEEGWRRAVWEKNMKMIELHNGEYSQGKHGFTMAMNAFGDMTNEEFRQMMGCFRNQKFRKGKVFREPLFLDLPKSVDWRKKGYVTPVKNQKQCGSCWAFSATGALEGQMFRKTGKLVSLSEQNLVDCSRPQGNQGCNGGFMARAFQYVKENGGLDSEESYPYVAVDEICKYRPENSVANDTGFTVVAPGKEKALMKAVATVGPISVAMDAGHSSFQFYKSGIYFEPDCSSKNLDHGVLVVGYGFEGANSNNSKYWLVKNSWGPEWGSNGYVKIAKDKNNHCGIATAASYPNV
UniProt Q9UJU6: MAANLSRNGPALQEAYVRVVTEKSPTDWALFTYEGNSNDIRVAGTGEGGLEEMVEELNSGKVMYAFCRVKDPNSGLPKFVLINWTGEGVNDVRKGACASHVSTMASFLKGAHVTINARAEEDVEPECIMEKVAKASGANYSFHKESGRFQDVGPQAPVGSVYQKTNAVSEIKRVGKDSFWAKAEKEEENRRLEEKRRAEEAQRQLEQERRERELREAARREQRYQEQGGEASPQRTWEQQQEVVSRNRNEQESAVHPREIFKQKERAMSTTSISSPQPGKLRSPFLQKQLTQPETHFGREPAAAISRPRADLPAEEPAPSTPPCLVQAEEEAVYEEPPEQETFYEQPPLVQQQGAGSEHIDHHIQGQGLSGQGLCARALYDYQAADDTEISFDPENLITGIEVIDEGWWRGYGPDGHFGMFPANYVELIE
UniProt P35222, whole entry, looked up: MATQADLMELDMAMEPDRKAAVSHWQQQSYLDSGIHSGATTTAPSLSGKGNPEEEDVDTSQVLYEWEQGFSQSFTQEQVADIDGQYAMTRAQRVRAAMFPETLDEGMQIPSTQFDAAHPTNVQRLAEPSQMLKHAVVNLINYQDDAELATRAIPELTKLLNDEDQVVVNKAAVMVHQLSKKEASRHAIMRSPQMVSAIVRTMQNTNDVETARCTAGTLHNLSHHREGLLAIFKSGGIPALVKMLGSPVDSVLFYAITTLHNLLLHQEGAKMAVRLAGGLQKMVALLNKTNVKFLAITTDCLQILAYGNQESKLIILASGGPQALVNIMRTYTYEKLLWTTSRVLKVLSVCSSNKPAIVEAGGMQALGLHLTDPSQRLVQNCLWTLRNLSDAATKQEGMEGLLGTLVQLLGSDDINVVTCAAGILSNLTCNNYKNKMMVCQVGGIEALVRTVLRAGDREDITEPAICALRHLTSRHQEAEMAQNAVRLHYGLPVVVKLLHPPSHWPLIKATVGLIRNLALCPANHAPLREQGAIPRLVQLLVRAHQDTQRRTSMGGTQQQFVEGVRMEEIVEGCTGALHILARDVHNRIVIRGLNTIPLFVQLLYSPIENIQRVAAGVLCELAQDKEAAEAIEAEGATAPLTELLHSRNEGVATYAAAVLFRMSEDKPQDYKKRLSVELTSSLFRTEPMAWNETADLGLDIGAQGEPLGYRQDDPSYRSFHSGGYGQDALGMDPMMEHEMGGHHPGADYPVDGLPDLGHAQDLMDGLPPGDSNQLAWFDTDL
UniProt Q96GG9: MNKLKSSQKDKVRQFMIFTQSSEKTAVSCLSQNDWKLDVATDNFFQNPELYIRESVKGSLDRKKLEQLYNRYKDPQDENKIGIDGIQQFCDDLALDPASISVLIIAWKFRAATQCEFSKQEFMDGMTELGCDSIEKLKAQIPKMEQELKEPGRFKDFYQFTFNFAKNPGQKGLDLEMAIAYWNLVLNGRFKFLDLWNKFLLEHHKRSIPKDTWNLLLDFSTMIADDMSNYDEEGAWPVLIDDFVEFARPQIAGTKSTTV
UniProt Q8TB03: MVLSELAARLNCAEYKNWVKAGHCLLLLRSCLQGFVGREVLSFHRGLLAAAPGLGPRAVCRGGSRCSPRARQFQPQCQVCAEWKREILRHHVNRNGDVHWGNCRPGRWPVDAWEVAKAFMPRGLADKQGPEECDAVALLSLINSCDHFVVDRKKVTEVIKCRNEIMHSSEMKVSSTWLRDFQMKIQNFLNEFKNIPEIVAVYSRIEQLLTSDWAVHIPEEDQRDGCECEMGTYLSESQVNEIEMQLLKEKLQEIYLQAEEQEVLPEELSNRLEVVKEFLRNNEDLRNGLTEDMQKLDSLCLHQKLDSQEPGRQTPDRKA
UniProt Q2VPK5: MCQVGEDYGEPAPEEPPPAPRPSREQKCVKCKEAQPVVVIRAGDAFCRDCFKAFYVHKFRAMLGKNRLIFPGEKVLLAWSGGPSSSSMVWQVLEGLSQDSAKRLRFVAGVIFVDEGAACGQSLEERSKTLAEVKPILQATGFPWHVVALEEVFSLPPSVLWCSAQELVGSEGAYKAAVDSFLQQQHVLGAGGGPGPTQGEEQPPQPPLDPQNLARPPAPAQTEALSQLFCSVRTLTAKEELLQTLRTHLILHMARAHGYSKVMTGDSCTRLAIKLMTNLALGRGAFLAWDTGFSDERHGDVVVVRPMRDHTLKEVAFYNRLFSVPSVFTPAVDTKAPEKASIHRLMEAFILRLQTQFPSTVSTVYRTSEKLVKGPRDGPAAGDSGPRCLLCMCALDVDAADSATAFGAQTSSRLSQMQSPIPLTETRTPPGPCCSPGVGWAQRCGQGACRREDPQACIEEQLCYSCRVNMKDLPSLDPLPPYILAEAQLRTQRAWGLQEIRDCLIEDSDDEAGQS
UniProt Q96DE9: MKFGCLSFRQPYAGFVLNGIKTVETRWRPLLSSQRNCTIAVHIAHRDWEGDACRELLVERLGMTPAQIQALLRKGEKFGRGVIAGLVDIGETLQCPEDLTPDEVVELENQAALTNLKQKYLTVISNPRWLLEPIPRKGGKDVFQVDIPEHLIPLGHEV
UniProt P01036: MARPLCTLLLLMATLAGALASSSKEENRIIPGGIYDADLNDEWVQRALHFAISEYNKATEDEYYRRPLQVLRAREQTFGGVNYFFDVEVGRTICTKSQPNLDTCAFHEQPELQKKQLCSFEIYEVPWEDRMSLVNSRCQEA
UniProt O43310: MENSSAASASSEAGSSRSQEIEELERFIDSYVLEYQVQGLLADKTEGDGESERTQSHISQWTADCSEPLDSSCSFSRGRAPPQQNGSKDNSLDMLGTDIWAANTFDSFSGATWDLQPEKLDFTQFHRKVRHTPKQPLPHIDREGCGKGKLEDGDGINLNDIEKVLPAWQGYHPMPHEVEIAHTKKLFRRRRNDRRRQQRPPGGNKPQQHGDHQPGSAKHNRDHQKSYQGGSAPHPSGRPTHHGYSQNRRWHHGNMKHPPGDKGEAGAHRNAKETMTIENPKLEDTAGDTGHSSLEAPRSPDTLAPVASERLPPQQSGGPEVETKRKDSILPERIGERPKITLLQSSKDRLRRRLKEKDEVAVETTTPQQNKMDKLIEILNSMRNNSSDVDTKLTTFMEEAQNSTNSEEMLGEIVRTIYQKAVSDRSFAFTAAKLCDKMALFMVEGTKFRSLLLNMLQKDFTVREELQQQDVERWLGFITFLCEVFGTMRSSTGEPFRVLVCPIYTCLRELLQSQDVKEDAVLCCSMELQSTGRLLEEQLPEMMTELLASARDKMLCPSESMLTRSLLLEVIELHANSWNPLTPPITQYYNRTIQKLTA
UniProt P00167, whole entry, looked up: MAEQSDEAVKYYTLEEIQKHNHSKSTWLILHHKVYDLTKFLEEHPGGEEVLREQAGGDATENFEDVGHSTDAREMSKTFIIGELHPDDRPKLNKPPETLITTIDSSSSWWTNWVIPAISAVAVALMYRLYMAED

Legend:
Assay in all cases: log2 fold change, soluble protein after heating vs DMSO (PISA); higher = thermal stabilisation; K562 cells, 10 uM, 30 min; active = over 0.2 and 3.5 SD of the protein, either way, in both replicates (recomputed)
[1] = compound: C1=CC=C(C=C1)[C@H](COC2=CC3=C(C=C2)NC(=O)N3)NC(=O)C4=CC=CN(C4=O)CC5=CC(=C(C=C5)F)F
Summary of the method: (§1)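 For each measurement, 10 μM compound was applied for 30 min to K562 cells at 2×10^6 cells/mL. Aliquots were heated for 3 min across 48°C-58°C, pooled, and extracted in PBS with 0.5% NP-40 at 4°C; the supernatant after 21,000xg for 90 min was soluble protein. This was quantified by TMTpro 16plex LC-MS/MS with channel sums equalised, and thermal stability was reported relative to control samples from duplicates, on a log2 fold-change scale.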

[2] = compound: CC1=C(SC2=C1C(=N[C@H](C3=NN=C(N32)C)CC(=O)N)C4=CC=C(C=C4)Cl)C
Summary of the method: as §1

[3] = compound: CC1=C2C(=CC=C1)N=C(N(C2=O)C3=CC=CC=C3C)CN4C=NC5=C(N=CN=C54)N
Summary of the method: as §1

[4] = compound: Cc1sc2c(c1C)C(c1ccc(Cl)cc1)=N[C@@H](CC(=O)OC(C)(C)C)c1nnc(C)n1-2
Summary of the method: as §1

[5] = compound: c1ccc([C@@H]2C[C@H]2NC2CCNCC2)cc1
Summary of the method: as §1

Measured: log2 fold change

CTSB (UniProt P07858)
inactive: [1] -0.015 | [2] -0.024 | [3] 0.019 | [4] -0.024 | [5] -0.035

CXorf56 (UniProt Q9H5V9)
inactive: [1] -0.024 | [2] 0.034 | [3] 0.077 | [4] 0.015 | [5] -0.031

CUEDC2 (UniProt Q9H467)
inactive: [1] 0.036 | [2] 0.047 | [3] 0.038 | [4] 0.01 | [5] -0.022

DARS (UniProt P14868)
inactive: [1] 0.026 | [2] -0.026 | [3] -0.016 | [4] 0.041 | [5] 0.012

CYP20A1 (UniProt Q6UW02)
inactive: [1] -0.013 | [2] 0.043 | [3] 0.067 | [4] -0.038 | [5] -0.017

DAG1 (UniProt Q14118)
inactive: [1] -0.068 | [2] 0.074 | [3] 0.072 | [4] 0.016 | [5] 0.049

2 successive records already listed:
DARS (UniProt P14868)
inactive: [1] 0.026 | [2] -0.026 | [3] -0.016 | [4] 0.041 | [5] 0.012

CYP20A1 (UniProt Q6UW02)
inactive: [1] -0.013 | [2] 0.043 | [3] 0.067 | [4] -0.038 | [5] -0.017

Further results.

DCTN6 (UniProt O00399)
inactive: [1] 0.012 | [2] 0.049 | [3] 0.019 | [4] 0.009 | [5] -0.006

DCTPP1 (UniProt Q9H773)
inactive: [1] 0.022 | [2] 0.029 | [3] -0.015 | [4] -0.043 | [5] 0.009

CTSV (UniProt O60911)
inactive: [1] -0.02 | [2] -0.087 | [3] 0.021 | [4] -0.065 | [5] 0.005

DAXX (UniProt Q9UER7)
inactive: [1] 0.166 | [2] 0.178 | [3] 0.197 | [4] 0.017 | [5] -0.101

CUX1 isoform 3 (UniProt P39880)
inactive: [1] 0 | [2] 0.025 | [3] 0.034 | [4] -0.009 | [5] 0.016

DAP3 (UniProt P51398)
inactive: [1] 0.044 | [2] -0.016 | [3] -0.083 | [4] 0.046 | [5] -0.037

DBNL isoform 3 (UniProt Q9UJU6)
inactive: [1] -0.096 | [2] 0.002 | [3] 0.045 | [4] 0.029 | [5] 0.01

CTNNB1 (UniProt P35222)
inactive: [1] -0.039 | [2] 0.101 | [3] 0.312 | [4] -0.062 | [5] -0.149

CYB5R1 (UniProt Q9UHQ9)
inactive: [1] 0.03 | [2] 0.041 | [3] 0.081 | [4] -0.024 | [5] -0.014

DCUN1D1 (UniProt Q96GG9)
inactive: [1] -0.011 | [2] 0.064 | [3] 0.073 | [4] -0.033 | [5] 0.003

CXorf38 (UniProt Q8TB03)
inactive: [1] -0.017 | [2] 0.073 | [3] 0.114 | [4] -0.004 | [5] -0.013

CTU2 (UniProt Q2VPK5)
inactive: [1] -0.01 | [2] 0.03 | [3] -0.009 | [4] -0.024 | [5] -0.021

CYB5B, A0A499FJ32
inactive: [1] 0.029 | [2] 0.11 | [3] 0.233 | [4] -0.096 | [5] 0.028

CWC27 (UniProt Q6UX04)
inactive: [1] -0.039 | [2] 0.097 | [3] 0.103 | [4] -0.03 | [5] -0.001

CTNND1 (UniProt O60716)
inactive: [1] 0.074 | [2] -0.147 | [3] -0.15 | [4] 0.27 | [5] -0.066

DBNL (UniProt Q9UJU6)
inactive: [2] -0.04 | [5] -0.099

CXorf40B (UniProt Q96DE9)
inactive: [2] 0.154 | [5] 0.201

CST4 (UniProt P01036)
inactive: [1] 0.248 | [2] -0.019 | [3] 0.112 | [5] -0.301

CTIF (UniProt O43310)
inactive: [2] 0.189 | [3] -0.671 | [4] -0.11 | [5] -0.114

CYB5A (UniProt P00167)
inactive: [1] 0.015 | [3] 0.026
